The values below come from paper PMC11676693, “Population Pharmacokinetic and Pharmacodynamic Study of Palbociclib in Children and Young Adults with Recurrent, Progressive, or Refractory Brain Tumors” (Pharmaceutics, 2024).

The subject of this data set is proliferating neutrophils in the bone marrow compartment (ANC). Nature of the data set: Population pharmacodynamic model of ANC (neutrophil dynamics). Type of data set: in vivo, children and young adults. The method, then: A complete blood count (CBC) with differential was performed pre-therapy, weekly during course 1, and then weekly during courses 2 to 26. The CBC provided platelet and absolute neutrophil counts (ANCs).
The model describing the ANC and platelet dynamics has been previously described. The model for the ANC consisted of a bone marrow compartment with proliferating neutrophils, three transient compartments that represent the maturation process of the neutrophils from blasts to circulating neutrophils, and a circulating neutrophil compartment. The model included the negative feedback effects of endogenous G-CSF, which affected the growth rate of proliferating cells in a manner inversely proportional to the concentration of circulating neutrophils. We assumed that palbociclib only affected the proliferating neutrophils in the bone marrow compartment. We used a similar structural model for platelet dynamics. The model describing the neutrophil dynamics is shown in Equations (1)–(5) and Figure S1. (1) NPBM/dt=kinKM/KM+NcircIC50n/IC50n+Cpalblociclibn−kbpNPBM (2) dNT1/dt=kbpNPBM−NT1 (3) dNT2/dt=kbpNT1−NT2 (4) dNT3/dt=kbpNT2−NT3 (5) dNcirc/dt=kpbNT3−koutNcirc
The model parameters were as follows: NPBM: proliferating bone marrow stem cells; NT1, NT2, and NT3: transient compartments describing the maturation phases of the neutrophils; Ncirc: circulating neutrophils. Note that we were only able to observe this compartment. […]
The parameters for the pharmacodynamic model were estimated using nonlinear mixed-effects modeling with the SAEM algorithm as implemented in the Monolix® software version 2023R1 (Lixoft, Antony, France). The palbociclib pharmacokinetics were fixed to each individual’s post hoc estimated parameters (as determined above). […] A proportional residual error model was used to quantify the unexplained variability of the model. […]

Take `CC(=O)c1c(C)c2cnc(Nc3ccc(N4CCNCC4)cn3)nc2n(C2CCCC2)c1=O` [palbociclib]: where the note is “ANC model, population estimate”, the “kbp (transition rate between transient compartments)” value is 0.78 day⁻¹ and the “kin (stem cell proliferation rate)” value is 0.90 day⁻¹. In addition, the “MTT (time for committed stem cells to pass through the maturation compartments)” value (estimated from current study) was 5.12 days.
